These are yes or no findings as the source states them, for the method shown. Some entries that bind do so weakly or less than the wild type. Where a sequence is shown, tags or fusion partners need not be part of it.
Key:
BMP9 [1] = molecular target: T1, BMP9 (UniProt Q9UK05 320-429); assay: SPR (Biacore), ligands ranked by koff
T1 construct: also called GDF2
T1 sequence (looked up): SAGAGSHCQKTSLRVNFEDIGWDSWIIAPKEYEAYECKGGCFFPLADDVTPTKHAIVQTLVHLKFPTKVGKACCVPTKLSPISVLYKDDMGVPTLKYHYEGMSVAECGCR

BMP10 [2] = molecular target: T2, BMP10 (UniProt O95393 317-424); assay: SPR (Biacore), ligands ranked by koff
T2 sequence (looked up): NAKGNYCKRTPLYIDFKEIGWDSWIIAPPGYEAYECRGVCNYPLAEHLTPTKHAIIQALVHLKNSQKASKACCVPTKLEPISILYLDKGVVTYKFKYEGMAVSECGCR

activin B [3] = molecular target: T3, activin B (UniProt P09529 293-407); assay: SPR (Biacore), ligands ranked by koff
T3 sequence (looked up): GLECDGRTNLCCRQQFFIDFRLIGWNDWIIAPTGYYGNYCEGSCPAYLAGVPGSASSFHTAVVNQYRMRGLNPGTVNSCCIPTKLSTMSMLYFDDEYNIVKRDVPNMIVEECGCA

GDF3 [4] = molecular target: T4, GDF3 (UniProt Q9NR23 251-364); assay: SPR (Biacore), ligands ranked by koff
T4 construct: also called VGR2
T4 sequence (looked up): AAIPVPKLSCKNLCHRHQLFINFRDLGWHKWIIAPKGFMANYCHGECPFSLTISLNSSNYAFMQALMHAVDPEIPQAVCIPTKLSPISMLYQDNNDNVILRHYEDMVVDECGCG

GDF8 [5] = molecular target: T5, GDF8 (UniProt O14793 267-375); assay: SPR (Biacore), ligands ranked by koff
T5 construct: also called myostatin
T5 sequence (looked up): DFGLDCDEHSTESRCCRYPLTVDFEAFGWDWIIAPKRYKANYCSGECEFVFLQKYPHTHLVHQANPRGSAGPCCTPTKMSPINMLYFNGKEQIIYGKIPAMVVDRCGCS

GDF11 [6] = molecular target: T6, GDF11 (UniProt O95390 299-407); assay: SPR (Biacore), ligands ranked by koff
T6 construct: also called BMP11
T6 sequence (looked up): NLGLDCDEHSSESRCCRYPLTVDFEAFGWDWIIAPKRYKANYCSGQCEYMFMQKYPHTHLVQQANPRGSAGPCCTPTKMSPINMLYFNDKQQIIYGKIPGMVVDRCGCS

BMP5 [7] = molecular target: T7, BMP5 (UniProt P22003 317-454, limits assumed); assay: SPR (Biacore), ligands ranked by koff
T7 sequence (looked up): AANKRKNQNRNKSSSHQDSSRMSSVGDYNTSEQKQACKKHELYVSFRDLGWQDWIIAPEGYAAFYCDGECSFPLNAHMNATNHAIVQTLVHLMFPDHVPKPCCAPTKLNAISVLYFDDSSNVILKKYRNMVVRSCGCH

BMP6 [8] = molecular target: T8, BMP6 (UniProt P22004 382-513, limits assumed); assay: SPR (Biacore), ligands ranked by koff
T8 sequence (looked up): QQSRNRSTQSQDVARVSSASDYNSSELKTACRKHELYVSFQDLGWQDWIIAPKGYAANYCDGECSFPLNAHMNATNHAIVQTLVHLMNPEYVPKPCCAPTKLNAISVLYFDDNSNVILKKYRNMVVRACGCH

BMP9 [9] = molecular target: T1, BMP9; assay: SPR (Biacore), anti-Fc capture, ligand in flow
BMP10 [10] = molecular target: T2, BMP10; assay: SPR (Biacore), anti-Fc capture, ligand in flow
activin B [11] = molecular target: T3, activin B; assay: SPR (Biacore), anti-Fc capture, ligand in flow
GDF3 [12] = molecular target: T4, GDF3; assay: SPR (Biacore), anti-Fc capture, ligand in flow
GDF8 [13] = molecular target: T5, GDF8; assay: SPR (Biacore), anti-Fc capture, ligand in flow
GDF11 [14] = molecular target: T6, GDF11; assay: SPR (Biacore), anti-Fc capture, ligand in flow
BMP6 [15] = molecular target: T8, BMP6; assay: SPR (Biacore), anti-Fc capture, ligand in flow
BMP5 [16] = molecular target: T7, BMP5; assay: SPR (Biacore), anti-Fc capture, ligand in flow
Method: A Biacore™-based binding assay was used to compare ligand binding selectivity of the ActRIIB-Fc:ALK7-Fc heterodimeric complex described above with that of ActRIIB-Fc and ALK7-Fc homodimeric complexes. The ActRIIB-Fc:ALK7-Fc heterodimer, ActRIIB-Fc homodimer, and ALK7-Fc homodimer were independently captured onto the system using an anti-Fc antibody. Ligands were injected and allowed to flow over the captured receptor protein. Results are summarized in the table below, in which ligand off-rates (kd) most indicative of effective ligand traps are denoted by bold font.

binding (BMP9 [1]): binds
binding (BMP10 [2]): binds
binding (activin B [3]): binds
binding (GDF3 [4]): binds
binding (GDF8 [5]): binds
binding (GDF11 [6]): binds
binding (BMP5 [7]): binds
binding (BMP6 [8]): binds
binding (BMP9 [9]): binds
binding (BMP10 [10]): binds
binding (activin B [11]): binds
binding (GDF3 [12]): binds
binding (GDF8 [13]): binds
binding (GDF11 [14]): binds
binding (BMP6 [15]): binds
binding (BMP5 [16]): binds
B1: ActRIIB-Fc homodimer (Fc fusion, human, UniProt Q13705 19-137, looked up, not shown: a dimerising Fc or GST)
chain: SGRGEAETRECIYYNANWELERTNQSGLERCEGEQDKRLHCYASWRNSSGTIELVKKGCWLDDFNCYDRQECVATEENPQVYFCCCEGNFCNERFTHLPEAGGPEVTYEPPPTAPTLLT
notes: extracellular domain; also called unmodified ActRIIB-Fc homodimer; ActRIIB-Fc:ActRIIB-Fc homodimer
